From the supplement of paper PMC4604168 (melanoma cell lines)
The other results are listed elsewhere or left out. Repeats are few or missing, and single values can be far off.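 The apoptosis fraction was the count of cleaved-PARP antibody-stained nuclei relative to all DNA-stained nuclei, imaged in 1,536-well plates. Screening doses were set so most cells survived, and baseline and induced cleaved-PARP levels vary greatly across cell lines.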

Columns and labels:
Experiment in all cases: cleaved PARP positive nuclei fraction relative to DMSO control; melanoma cells; higher = more apoptosis
Conditions in all cases: library dose: low library concentration; 72 h
MZ2-MEL = tested on: MZ2-MEL
MeWo = tested on: MeWo
RPMI7951 = tested on: RPMI7951
RVH-421 = tested on: RVH-421
SkMel28 = tested on: SkMel28
SkMel2 = tested on: SkMel2
SkMel30 = tested on: SkMel30
UACC62 = tested on: UACC62
WM115 = tested on: WM115
WM1716 = tested on: WM1716
WM1745 = tested on: WM1745
WM3526 = tested on: WM3526
WM3619 = tested on: WM3619
WM451Lu = tested on: WM451Lu

| Structure (SMILES) | cleaved PARP positive nuclei fraction (MZ2-MEL) | cleaved PARP positive nuclei fraction (MeWo) | cleaved PARP positive nuclei fraction (RPMI7951) | cleaved PARP positive nuclei fraction (RVH-421) | cleaved PARP positive nuclei fraction (SkMel28) | cleaved PARP positive nuclei fraction (SkMel2) | cleaved PARP positive nuclei fraction (SkMel30) | cleaved PARP positive nuclei fraction (UACC62) | cleaved PARP positive nuclei fraction (WM115) | cleaved PARP positive nuclei fraction (WM1716) | cleaved PARP positive nuclei fraction (WM1745) | cleaved PARP positive nuclei fraction (WM3526) | cleaved PARP positive nuclei fraction (WM3619) | cleaved PARP positive nuclei fraction (WM451Lu) |
| --- | --- | --- | --- | --- | --- | --- | --- | --- | --- | --- | --- | --- | --- | --- |
| O=C(O)c1ccc2c(c1)nc(Nc1cccc(Cl)c1)c1ccncc12 + OCc1c[nH]c2ccccc12 [Indole-3-carbinol] (first compound 0.4 µM, partner dose 0.8 µM) | 157% | 217% | 48.4% | 97.1% | 79.3% | 118% | 76.6% | 99.1% | 73.5% | 119% | 87.9% | 245% | 98.9% | 33.6% |
| CS(=O)(=O)CCNCc1ccc(-c2ccc3ncnc(Nc4ccc(OCc5cccc(F)c5)c(Cl)c4)c3c2)o1 [lapatinib] + Nc1ccn([C@@H]2O[C@H](CO)[C@@H](O)C2(F)F)c(=O)n1 [gemcitabine] (first compound 0.8 µM, partner dose 0.0004 µM) | 82.4% | 107% | 158% | 123% | 40.4% | 76.3% | 110% | 116% | 56% | 63.9% | 104% | 74.8% | 88.6% | 185% |
| Cn1c(=O)n(-c2ccc(C(C)(C)C#N)cc2)c2c3cc(-c4cnc5ccccc5c4)ccc3ncc21 + COCC[n+]1c2c(n(Cc3cnccn3)c1C)C(=O)c1ccccc1C2=O [YM155] (first compound 0.004 µM, partner dose 0.0004 µM) | 123% | 142% | 116% | 65.9% | 113% | 80.5% | 56.3% | 119% | 136% | 82.8% | 85.2% | 93.6% | 103% | 159% |
| CNC(=O)c1cc(Oc2ccc(NC(=O)Nc3ccc(Cl)c(C(F)(F)F)c3)cc2)ccn1 [sorafenib] + C=CCNC1=C2C[C@@H](C)C[C@H](OC)[C@H](O)[C@@H](C)/C=C(\C)[C@H](OC(N)=O)[C@@H](OC)/C=C\C=C(/C)C(=O)NC(=CC1=O)C2=O [Tanespimycin] (first compound 0.4 µM, partner dose 0.002 µM) | 51.3% | 97.4% | 34.8% | 74% | 85.4% | 153% | 49.3% | 209% | 61.5% | 177% | 95.2% | 30% | 87.8% | 104% |
| CN1CCN(c2ccc3nc(-c4c(N)c5c(F)cccc5[nH]c4=O)[nH]c3c2)CC1 [Dovitinib] + CNC(=O)c1cc(Oc2ccc(NC(=O)Nc3ccc(Cl)c(C(F)(F)F)c3)cc2)ccn1 [sorafenib] (first compound 0.1 µM, partner dose 0.4 µM) | 62.4% | 134% | 33.1% | 94.8% | 93.9% | 56.8% | 305% | 143% | 70.8% | 74.8% | 125% | 93.7% | 88.4% | 179% |
| Nc1ccn([C@@H]2O[C@H](CO)[C@@H](O)C2(F)F)c(=O)n1 [gemcitabine] + C[C@]1(c2nc3c(C(N)=O)cccc3[nH]2)CCCN1 [Veliparib] (first compound 0.0004 µM, partner dose 1.4 µM) | 158% | 70.2% | 308% | 86.1% | 89.4% | 76.2% | 65.5% | 81% | 114% | 117% | 126% | 75% | 229% | 177% |
| Cn1c(=O)n(-c2ccc(C(C)(C)C#N)cc2)c2c3cc(-c4cnc5ccccc5c4)ccc3ncc21 + O=C(O)c1ccc2c(c1)nc(Nc1cccc(Cl)c1)c1ccncc12 [CX4945] (first compound 0.004 µM, partner dose 0.4 µM) | 130% | 67% | 155% | 116% | 303% | 57% | 40.8% | 73.3% | 139% | 37.3% | 96.9% | 65.5% | 104% | 358% |
| CCCS(=O)(=O)Nc1ccc(F)c(C(=O)c2c[nH]c3ncc(Cl)cc23)c1F + Nc1cccc2c1CN(C1CCC(=O)NC1=O)C2=O [lenalidomide] (first compound 0.08 µM, partner dose 1 µM) | 74.2% | 94.3% | 346% | 330% | 127% | 41.9% | 65.9% | 89.5% | 75.3% | 64.8% | 62.5% | 49.7% | 95.4% | 74.9% |
| O=C(O)[C@@H]1[O][Sb](=[O])([O][Sb]2(=[O])[O][C@H]([C@H](O)CO)[C@H](O)[C@H](C(=O)O)[O]2)[O][C@H]([C@H](O)CO)[C@@H]1O (stereo not given in full) [stibogluconate] + Nc1ccn([C@@H]2O[C@H](CO)[C@@H](O)C2(F)F)c(=O)n1 [gemcitabine] (first compound 2 µM, partner dose 0.0004 µM) | 278% | 141% | 50.8% | 543% | 115% | 96.1% | 41.6% | 93.3% | 56.2% | 112% | 137% | 153% | 148% | 153% |
| O=C(O)[C@@H]1[O][Sb](=[O])([O][Sb]2(=[O])[O][C@H]([C@H](O)CO)[C@H](O)[C@H](C(=O)O)[O]2)[O][C@H]([C@H](O)CO)[C@@H]1O (stereo not given in full) [stibogluconate] + Cn1nnc2c(C(N)=O)ncn2c1=O [temozolomide] (first compound 2 µM, partner dose 2 µM) | 210% | 34.4% | 296% | 100% | 99.5% | 102% | 97.4% | 303% | 85.4% | 121% | 102% | 53.6% | 95.3% | 113% |
| CS(=O)(=O)CCNCc1ccc(-c2ccc3ncnc(Nc4ccc(OCc5cccc(F)c5)c(Cl)c4)c3c2)o1 [lapatinib] + Clc1ccc(Nc2nnc(Cc3ccncc3)c3ccccc23)cc1 [vatalanib] (first compound 0.8 µM, partner dose 2 µM) | 79.4% | 233% | 224% | 261% | 73.1% | 78.9% | 80.7% | 84.4% | 93.9% | 44.1% | 92.9% | 165% | 109% | 140% |
| CN1CCN(c2ccc3nc(-c4c(N)c5c(F)cccc5[nH]c4=O)[nH]c3c2)CC1 [Dovitinib] + COCC[n+]1c2c(n(Cc3cnccn3)c1C)C(=O)c1ccccc1C2=O [YM155] (first compound 0.1 µM, partner dose 0.0004 µM) | 27.8% | 137% | 135% | 71.8% | 95% | 109% | 460% | 192% | 157% | 227% | 107% | 35.9% | 106% | 57.2% |
| C[C@@H](Oc1cc(-c2cnn(C3CCNCC3)c2)cnc1N)c1c(Cl)ccc(F)c1Cl [Crizotinib] + CCCS(=O)(=O)Nc1ccc(F)c(C(=O)c2c[nH]c3ncc(Cl)cc23)c1F [PLX4720] (first compound 0.2 µM, partner dose 0.08 µM) | 103% | 98.2% | 125% | 160% | 98.7% | 104% | 81.7% | 107% | 63.1% | 58.4% | 103% | 60.7% | 85.5% | 45.1% |
| Nc1nc(F)nc2c1ncn2[C@@H]1O[C@H](CO)[C@@H](O)[C@@H]1O [fludarabine] + C#Cc1cccc(Nc2ncnc3cc(OCCOC)c(OCCOC)cc23)c1 [erlotinib] (first compound 0.2 µM, partner dose 0.8 µM) | 75.8% | 680% | 51% | 54.4% | 198% | 450% | 1610% | 99.3% | 76.7% | 42.5% | 103% | 2080% | 78.6% | 284% |
| CS(=O)(=O)CCNCc1ccc(-c2ccc3ncnc(Nc4ccc(OCc5cccc(F)c5)c(Cl)c4)c3c2)o1 [lapatinib] + O=C(O)c1ccc2c(c1)nc(Nc1cccc(Cl)c1)c1ccncc12 [CX4945] (first compound 0.8 µM, partner dose 0.4 µM) | 109% | 147% | 152% | 93.9% | 73.4% | 74.6% | 160% | 49.6% | 133% | 137% | 84% | 23.2% | 83.4% | 129% |
| CC(C)C[C@H](NC(=O)[C@H](Cc1ccccc1)NC(=O)c1cnccn1)B(O)O [Bortezomib] + CCCS(=O)(=O)Nc1ccc(F)c(C(=O)c2c[nH]c3ncc(Cl)cc23)c1F [PLX4720] (first compound 0.001 µM, partner dose 0.08 µM) | 326% | 366% | 215% | 297% | 82.9% | 135% | 99.9% | 349% | 114% | 882% | 163% | 63.4% | 630% | 50.5% |
| O=C(O)[C@@H]1[O][Sb](=[O])([O][Sb]2(=[O])[O][C@H]([C@H](O)CO)[C@H](O)[C@H](C(=O)O)[O]2)[O][C@H]([C@H](O)CO)[C@@H]1O (stereo not given in full) [stibogluconate] + Cn1c(Nc2ccc(C(F)(F)F)cc2)nc2cc(Oc3ccnc(-c4ncc(C(F)(F)F)[nH]4)c3)ccc21 [CHIR265] (first compound 2 µM, partner dose 0.08 µM) | 67% | 1230% | 53.3% | 125% | 105% | 67.9% | 149% | 123% | 286% | 632% | 119% | 176% | 100% | 99.5% |
| Cc1cc(Nc2cc(N3CCN(C)CC3)nc(/C=C/c3ccccc3)n2)n[nH]1 + O=C(O)c1ccc2c(c1)nc(Nc1cccc(Cl)c1)c1ccncc12 [CX4945] (first compound 0.04 µM, partner dose 0.4 µM) | 135% | 118% | 256% | 128% | 78% | 7360% | 42.6% | 55.2% | 79% | 301% | 109% | 88.8% | 84.8% | 104% |
| O=C(O)[C@@H]1[O][Sb](=[O])([O][Sb]2(=[O])[O][C@H]([C@H](O)CO)[C@H](O)[C@H](C(=O)O)[O]2)[O][C@H]([C@H](O)CO)[C@@H]1O (stereo not given in full) [stibogluconate] + C=C(c1ccc(C(=O)O)cc1)c1cc2c(cc1C)C(C)(C)CCC2(C)C [Bexarotene] (first compound 2 µM, partner dose 2 µM) | 104% | 96.2% | 121% | 280% | 101% | 156% | 106% | 219% | 66.8% | 53.8% | 119% | 127% | 93% | 55.7% |
| CC(C)C[C@H](NC(=O)[C@H](Cc1ccccc1)NC(=O)c1cnccn1)B(O)O [Bortezomib] + Nc1nc(F)nc2c1ncn2[C@@H]1O[C@H](CO)[C@@H](O)[C@@H]1O [fludarabine] (first compound 0.001 µM, partner dose 0.2 µM) | 118% | 670% | 100% | 242% | 46.4% | 792% | 4850% | 55.4% | 126% | 532% | 104% | 875% | 394% | 395% |

Shown with bars between the fields: part of the list above
Structure (SMILES) | cleaved PARP positive nuclei fraction (MZ2-MEL) | cleaved PARP positive nuclei fraction (MeWo) | cleaved PARP positive nuclei fraction (RPMI7951) | cleaved PARP positive nuclei fraction (RVH-421) | cleaved PARP positive nuclei fraction (SkMel28) | cleaved PARP positive nuclei fraction (SkMel2) | cleaved PARP positive nuclei fraction (SkMel30) | cleaved PARP positive nuclei fraction (UACC62) | cleaved PARP positive nuclei fraction (WM115) | cleaved PARP positive nuclei fraction (WM1716) | cleaved PARP positive nuclei fraction (WM1745) | cleaved PARP positive nuclei fraction (WM3526) | cleaved PARP positive nuclei fraction (WM3619) | cleaved PARP positive nuclei fraction (WM451Lu)
CS(=O)(=O)CCNCc1ccc(-c2ccc3ncnc(Nc4ccc(OCc5cccc(F)c5)c(Cl)c4)c3c2)o1 [lapatinib] + Clc1ccc(Nc2nnc(Cc3ccncc3)c3ccccc23)cc1 [vatalanib] (first compound 0.8 µM, partner dose 2 µM) | 79.4% | 233% | 224% | 261% | 73.1% | 78.9% | 80.7% | 84.4% | 93.9% | 44.1% | 92.9% | 165% | 109% | 140%
CN1CCN(c2ccc3nc(-c4c(N)c5c(F)cccc5[nH]c4=O)[nH]c3c2)CC1 [Dovitinib] + COCC[n+]1c2c(n(Cc3cnccn3)c1C)C(=O)c1ccccc1C2=O [YM155] (first compound 0.1 µM, partner dose 0.0004 µM) | 27.8% | 137% | 135% | 71.8% | 95% | 109% | 460% | 192% | 157% | 227% | 107% | 35.9% | 106% | 57.2%
